{"source": "patent US12226427B2", "about": "“Treatment for gene reactivation” (YISSUM RESEARCH DEVELOPMENT COMPANY OF THE HEBREW …, priority 2018, dated 2025)", "system": "FXS-NPCs", "test": "RNA sequencing (transcriptome) analysis of treated FXS-NPCs", "assay_type": "cell-based, human", "details": "X chromosome genes unexpressed in untreated cells", "note": "Some results come without the dose or concentration used.", "data": [{"compound": "Nc1ncn([C@H]2C[C@H](O)[C@@H](CO)O2)c(=O)n1", "note": "[5-azadC, 5-aza-2-deoxycytidine]", "values": [{"measurement": "Percentage of upregulated genes in genes that escape XCI versus genes that undergo XCI", "value": 2.33, "unit": "fold"}]}]}
